These are yes or no findings as the source states them, for the method shown. Some results given as binding are weak or reduced against the parent protein; the word gives no strength. Sequences can lack the tags named with a protein.
Assays:
[1] = target: T1, Pub1p R3 (RRM3 domain, residues 315–414) (Saccharomyces cerevisiae) (UniProt P32588); assay: NMR titration; 1H-15N HSQC of 15N-labelled Pub1p construct (100 µM) with unlabelled Tif4631p (1–402) added (1:1.9, 1:0.8 and 1:0.4 for Pub1p R3; 1:2 for Pub1p R12); 25 mM potassium phosphate pH 7.0, 25 mM NaCl, 0.1 mM DTT, 25°C; both purified
T1 sequence: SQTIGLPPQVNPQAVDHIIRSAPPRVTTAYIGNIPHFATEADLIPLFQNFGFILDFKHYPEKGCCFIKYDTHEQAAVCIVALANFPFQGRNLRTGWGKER

[2] = target: T2, Tif4631p (1–184) (Saccharomyces cerevisiae, UniProt P39935 1-184); assay: cross-linking; glutaraldehyde by vapour diffusion, 16 h at 4°C; Pub1p proteins 10 µM, Tif4631p (1–402) 1 µM, Tif4631p (1–184) 4 µM; 25 mM potassium phosphate, 150 mM NaCl, 0.1 mM DTT, pH 8.0; 15% SDS-PAGE, silver stain; both purified
T2 construct: Tif4631p (yeast eIF4G1), Saccharomyces cerevisiae, residues 1-184; Cloned 'following equivalent methods' to the Pub1p constructs; source: E. coli BL21(DE3), purified (HisTrap, TEV digestion, second nickel column, anion exchange MonoQ); not shown: thioredoxin A, N-terminal, cleaved; His6, internal, cleaved
T2 sequence (looked up): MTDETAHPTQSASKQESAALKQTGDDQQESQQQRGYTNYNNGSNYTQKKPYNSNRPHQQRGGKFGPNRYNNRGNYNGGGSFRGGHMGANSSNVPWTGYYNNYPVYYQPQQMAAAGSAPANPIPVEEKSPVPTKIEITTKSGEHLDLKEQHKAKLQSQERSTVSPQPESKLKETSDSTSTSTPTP

[3] = target: T3, Tif4631p (1–82) (Saccharomyces cerevisiae) (UniProt P39935); assay: as above
T3 sequence: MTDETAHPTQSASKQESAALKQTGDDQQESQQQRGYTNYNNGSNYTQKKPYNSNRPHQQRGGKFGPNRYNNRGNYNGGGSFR

[4] = target: T4, Tif4631p (1–402) (Saccharomyces cerevisiae, UniProt P39935 1-402); assay: as above
T4 construct: Cloned 'following equivalent methods' to the Pub1p constructs (same modified pET28 vector); Unlabelled or 15N-labelled according to the NMR experiment; source: E. coli BL21(DE3), purified (HisTrap, TEV digestion, second nickel column, anion exchange MonoQ); not shown: thioredoxin A, N-terminal, cleaved; His6, internal, cleaved
T4 sequence (looked up): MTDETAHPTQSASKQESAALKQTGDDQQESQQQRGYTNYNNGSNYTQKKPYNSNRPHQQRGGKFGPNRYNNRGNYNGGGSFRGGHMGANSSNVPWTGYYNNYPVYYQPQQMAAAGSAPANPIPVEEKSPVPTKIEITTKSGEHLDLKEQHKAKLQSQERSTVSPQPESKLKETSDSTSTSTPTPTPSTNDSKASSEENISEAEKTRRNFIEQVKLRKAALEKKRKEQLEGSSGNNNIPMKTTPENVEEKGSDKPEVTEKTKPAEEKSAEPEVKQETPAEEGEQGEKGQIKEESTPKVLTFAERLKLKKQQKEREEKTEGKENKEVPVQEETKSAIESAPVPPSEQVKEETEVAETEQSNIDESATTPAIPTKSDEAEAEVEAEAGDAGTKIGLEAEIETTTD

[5] = target: T2, Tif4631p (1–184); assay: condition: 10 µM Pub1p R3 double mutant, 4 µM Tif4631p (1–184); cross-linking; glutaraldehyde by vapour diffusion, 16 h at 4°C; Pub1p proteins 10 µM, Tif4631p (1–402) 1 µM, Tif4631p (1–184) 4 µM; 25 mM potassium phosphate, 150 mM NaCl, 0.1 mM DTT, pH 8.0; 15% SDS-PAGE, silver stain; both purified
[6] = target: T4, Tif4631p (1–402); assay: condition: 10 µM Pub1p R3 double mutant, 1 µM Tif4631p (1–402); cross-linking; glutaraldehyde by vapour diffusion, 16 h at 4°C; Pub1p proteins 10 µM, Tif4631p (1–402) 1 µM, Tif4631p (1–184) 4 µM; 25 mM potassium phosphate, 150 mM NaCl, 0.1 mM DTT, pH 8.0; 15% SDS-PAGE, silver stain; both purified

B1: Tif4631p (1–402) (domain or fragment, UniProt P39935 1-402)
chain: MTDETAHPTQSASKQESAALKQTGDDQQESQQQRGYTNYNNGSNYTQKKPYNSNRPHQQRGGKFGPNRYNNRGNYNGGGSFRGGHMGANSSNVPWTGYYNNYPVYYQPQQMAAAGSAPANPIPVEEKSPVPTKIEITTKSGEHLDLKEQHKAKLQSQERSTVSPQPESKLKETSDSTSTSTPTPTPSTNDSKASSEENISEAEKTRRNFIEQVKLRKAALEKKRKEQLEGSSGNNNIPMKTTPENVEEKGSDKPEVTEKTKPAEEKSAEPEVKQETPAEEGEQGEKGQIKEESTPKVLTFAERLKLKKQQKEREEKTEGKENKEVPVQEETKSAIESAPVPPSEQVKEETEVAETEQSNIDESATTPAIPTKSDEAEAEVEAEAGDAGTKIGLEAEIETTTD
binding [1]: binds weakly

B2: Pub1p R12 (RRM1 and RRM2 domains, residues 32–242) (domain or fragment, UniProt P32588 32-242)
chain: ADPSSEQSVAVEGNSEQAEDNQGENDPSVVPANAITGGRETSDRVLYVGNLDKAITEDILKQYFQVGGPIANIKIMIDKNNKNVNYAFVEYHQSHDANIALQTLNGKQIENNIVKINWAFQSQQSSSDDTFNLFVGDLNVNVDDETLRNAFKDFPSYLSGHVMWDMQTGSSRGYGFVSFTSQDDAQNAMDSMQGQDLNGRPLRINWAAKRD
binding [2]: no binding (tested: 10 µM Pub1p R12, 4 µM Tif4631p (1–184)) | binding [3]: no binding (tested: 10 µM Pub1p R12) | binding [4]: no binding (tested: 10 µM Pub1p R12, 1 µM Tif4631p (1–402))

B3: Pub1p R3 Phe364Ala/Phe366Ala double mutant (domain or fragment, UniProt P32588 315-414)
chain: SQTIGLPPQVNPQAVDHIIRSAPPRVTTAYIGNIPHFATEADLIPLFQNAGAILDFKHYPEKGCCFIKYDTHEQAAVCIVALANFPFQGRNLRTGWGKER
binding [3]: no binding (tested: 10 µM Pub1p R3 double mutant) | binding [5]: no binding | binding [6]: no binding

B4: Pub1p R3 (RRM3 domain, residues 315–414) (domain or fragment, Saccharomyces cerevisiae, UniProt P32588 315-414, looked up)
chain: SQTIGLPPQVNPQAVDHIIRSAPPRVTTAYIGNIPHFATEADLIPLFQNFGFILDFKHYPEKGCCFIKYDTHEQAAVCIVALANFPFQGRNLRTGWGKER
notes: also called Pub1p TRRM; Pub1p RRM3; source: E. coli BL21(DE3), purified (HisTrap, TEV digestion, second nickel column, cation exchange); not shown: thioredoxin A, N-terminal, cleaved; His6, internal, cleaved
binding [3]: no binding (tested: 10 µM Pub1p R3)

From publication PMC3169606, “Pub1p C-Terminal RRM Domain Interacts with Tif4631p through a Conserved Region Neighbouring the Pab1p Binding Site” (PLoS ONE, 2011)
